Source: ChEMBL document CHEMBL3988442, “University of Dundee, Small-Polar-MMV Screening Library” (2021).

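Whole-parasite assay of Trypanosoma brucei over 72 hours; the read-out is not stated. Compounds at 30 µM. The record gives no direction; compounds that gave an IC50 in retests scored well above the rest, so higher reads as stronger inhibition. Values scatter widely below zero; nearly all retest evidence comes from the higher of the two concentrations used. Of about 64,000 compounds tested this way, about 940 (1.5%) reached 50% or more in at least one test.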

Values are the deposited “Percent Effect”, in %.
The record does not define 0% and 100%; most values in the screen are far below 50% and negative numbers occur (in some assays of this library far below -100).
Compounds were drawn at random from those tested, without regard to their results.

Compound | effect
CC(C)[C@H]1COC(=O)N1Cc1nccn1C(C)C | -2.695
COCc1nn(C)c2c1CN(C(=O)c1ccno1)CC2 | -23.47
COc1cccc(S(=O)(=O)NC(=O)CCC2CCCC2)c1 | -35.83
CN1CC2(CCCN(Cc3ccc(Oc4ccccc4)cc3)C2)OC1=O (stereo not given) | -7.898
Cc1cccc(Oc2nccnc2C2CCN(C(=O)C(C)(C)N)CC2)c1 | 15.91
N#Cc1ccnc(N2CCN(CC(O)c3ccccc3)CC2)c1 (stereo not given) | -21.8
Cc1n[nH]c(C)c1C1CCCN1C(=O)NCC(=O)Nc1ccccc1 (stereo not given) | -12.39
CCc1nc(CCNC(=O)NC2CC(=O)N(C(C)(C)C)C2)cs1 (stereo not given) | -13.34
Cc1cnn(C2CCCN(C(=O)c3ccc(-n4cnnn4)cc3)C2)c1 (stereo not given) | -11.26
Cc1cc2c(N)nc(=O)n(CC(=O)Nc3ccccc3)c2s1 | -31.5
O=S(=O)(CCN1CCOC(Cn2cccn2)C1)C(F)(F)F (stereo not given) | 47.99
CN(C)C(=O)CC1CC2(CCN(Cc3cccs3)CC2)c2ccccc21.O=C(O)C(F)(F)F (stereo not given) | -24.85
CC[C@H]1COCCN1C(=O)CCCn1nnc(-c2ccc(F)cc2)n1 | -17.95
c1cn(Cc2ccc(N3CCCN(C4CCCC4)CC3)nc2)cn1 | -12.2
Cc1noc(C)c1CCCNc1cnccn1 | -3.445
O=C(O)C(F)(F)F.[H][C@]12CCCN(Cc3ccoc3)[C@@]1([H])CN(C(=O)c1ccco1)C2 | -0.7502
O=c1oc(-c2cccs2)nn1CC(O)c1ccc(F)cc1 (stereo not given) | 19.88
Cc1nn(CN(CC2CCOC2)C2CC2)c(=O)c2ccccc12 (stereo not given) | -31.11
COCc1cnc2n1CCN(C(=O)c1ccc3ccccc3n1)C2C.O=C(O)C(F)(F)F (stereo not given) | -3.683
COc1ncccc1CNCc1c(C(C)C)nn(C)c1Cl | -25.85
CS(=O)(=O)NCCN1CCSCC1c1ccc(Cl)cc1 (stereo not given) | -1.911
COCC1CC2(CCN(C(=O)c3cncc(C)c3)CC2)CO1.O=C(O)C(F)(F)F (stereo not given) | -197.5
O=C1NCC(C(=O)Nc2ccc(=O)n(Cc3ccccc3Cl)c2)N1 (stereo not given) | -2.962
Cc1c(C(=O)N2CCC(C(O)c3ccc(Cl)cc3)CC2)cnn1C (stereo not given) | -14.8
CNC(=O)[C@@H](C1CCCCC1)N1CCC[C@H]1C(=O)NCCN1CCCC1.Cl.Cl | -33.64
CNc1cc(C)nc(C2COCCN2CCOc2ccc(F)cc2)n1 (stereo not given) | -1.385
O=c1[nH]c(C2CCOC2)nc2ccc(Cl)cc12 (stereo not given) | -48.3
COCCCN1Cc2cccc(NC(=O)C(C)(C)C)c2C1 | 2.312
CN1CCN(c2ncc3c(=O)n(Cc4ccco4)ccc3n2)CC1 | -1.021
CCOCCCC(=O)N1CCN(c2cccc(OC)c2)C(C)C1 (stereo not given) | -19.77
[H][C@]12CCN(C(=O)C3CCCO3)CC[C@@]1([H])S(=O)(=O)N(CC(C)C)C2 (stereo not given in full) | -85.5
CC(CN1CCOCC1)NC(=O)NCc1ccc(Cl)s1 (stereo not given) | 11.83
Cc1occc1C(=O)N1CCCC2(CCN(CCN3CCCC3)C2=O)C1.O=C(O)C(F)(F)F (stereo not given) | -2.436
Cc1ccsc1CNC1CCCc2c1cnn2C.Cl (stereo not given) | -8.787
O=C(O)C(F)(F)F.O=C(O)C(F)(F)F.[H][C@@]12CCCO[C@]1([H])[C@H](N(C)Cc1cccnc1)CN2C(=O)CC1CC1 | -7.287
CC(=O)N1CCN(C(=O)c2sc(-c3ccccc3F)nc2C)CC1 | -46.44
Cc1nccc(N2CCC(Cc3cccc(C(=O)O)c3)CC2)n1 | -25.86
c1cnn(CC2CN(CC3CCCC3)CCO2)c1 (stereo not given) | 14.95
CCC1CN(C(=O)c2ccc(Cl)cc2O)CCN1C(C)C (stereo not given) | 48.72
CC(=O)NCCSCCOc1cccc(Br)c1 | -32.39
O=C(Cc1ccsc1)N1CCC(Cn2cc(CCO)nn2)CC1 | -19.97
O=C(CN1CCc2cncnc2C1)NC(C1CC1)C1CC1 | -60.68
CC(C)c1nccn1C1CCCN(C(=O)c2ccc3nncn3c2)C1 (stereo not given) | -11.89
COc1ccc(C)cc1CSCCn1nc2ccccn2c1=O | 7.261
CC(C)(CCS(C)(=O)=O)CNC(=O)NC1CCCC1(C)C (stereo not given) | -10.16
Nc1cc(C(=O)N2CCC3(CC2)Nc2ccccc2NC3=O)ccn1 | -26.63
CCc1c(C)sc2ncnc(N3CC[C@@H](N4CCC(O)CC4)[C@H](O)C3)c12 | 6.301
Cc1ccc(CN2CCc3ncnc(C4CC4)c3CC2)s1.O=C(O)C(F)(F)F | -81.15
CCOCC1CN(Cc2ccoc2)Cc2cn(CC3CC3)nc21 (stereo not given) | -2.889
Cn1ccnc1-c1cn(CCc2nnc(N)s2)nn1 | -32.29
CC(C)NC(=O)N1CCc2onc(C(=O)NCCN(C)C)c2C1.O=C(O)C(F)(F)F | -41.27
COCCN(Cc1ccccc1Cl)c1nc(CCN)nc2ccccc12 | -44.56
NC(=O)C1CN(C(=O)Nc2cc(Cl)cc(Cl)c2)CCO1 (stereo not given) | 103.3
O=C(OCc1ccccc1)c1cccc(NC(=O)C2COCCO2)c1 (stereo not given) | -11.45
CCN1CCN(Cc2csc(C(C)C)n2)CC1 | 81.77
CC(=O)NCCNc1nc(C2CCCC2)nc2c1cnn2C | -32.86
CCOCCCNC(=O)CCSCc1csc(C)n1 | -25.02
C=Cn1ncc(CN2CCC(c3ncc(Cl)cc3S(C)(=O)=O)CC2)c1C | -12.22
O=C(O)C(F)(F)F.c1cc(C2CC2)n2cnc(C3CN(Cc4nccs4)CCO3)c2c1 (stereo not given) | -91.92
Cc1cc(C)c(CNC(=O)NCC2CCCN2C)c(=O)[nH]1 (stereo not given) | -65.66
O=C(O)C(F)(F)F.[H][C@@]12CCN(Cc3cccs3)[C@]1([H])CC[C@@H](C(=O)N1CCCCO1)O2 | -10.12
CCSc1cc(C(=O)NCc2ccccc2O)ccn1 | -63.2
N#Cc1ccc(CN2C(=O)c3ccccc3CS2(=O)=O)cc1 | -25.27
O=C(COC1CCCCC1)Nc1ccn(Cc2cccnc2)n1 | 13.81
O=c1cc(C2CCNCC2)nc(CCCc2ccccc2)[nH]1 | -2.998
Cc1cccnc1[C@H](C)NC(=O)c1cccc(CC2CCNCC2)c1 | 7.543
O=C(O)C(F)(F)F.[H][C@@]12C[C@H](C(=O)Nc3cccnc3)CN(C(=O)c3ccsc3)[C@]1([H])CCO2 | 9.94
CC1c2cc(F)ccc2CCN1CCS(=O)(=O)C(C)C (stereo not given) | 7.177

5 of the entries, repeated:

Compound,effect
Cc1ccsc1CNC1CCCc2c1cnn2C.Cl (stereo not given),-8.787
O=C(O)C(F)(F)F.c1cc(C2CC2)n2cnc(C3CN(Cc4nccs4)CCO3)c2c1 (stereo not given),-91.92
CCOCC1CN(Cc2ccoc2)Cc2cn(CC3CC3)nc21 (stereo not given),-2.889
Cc1nccc(N2CCC(Cc3cccc(C(=O)O)c3)CC2)n1,-25.86
CNc1cc(C)nc(C2COCCN2CCOc2ccc(F)cc2)n1 (stereo not given),-1.385